Assay results as given in PubChem BioAssay AID485353 (National Center for Advancing Translational Sciences (NCATS), 2010).
Out of some 330,000 compounds screened, about 610 (0.18%) were called active. The inconclusive results got no clear call from the source; some entries with a clear call stand among them for comparison. Calls follow the shape of the full dose curve. Where the call is inconclusive, the potency comes from a doubtful curve fit.
Potency is read from the fitted curve at half-maximal effect.

Assay: qHTS of Yeast-based Assay for SARS-CoV PLP; also: nearly all actives have a fitted effect of over 55% in size; as to activity, positive = growth rescue: 0% is about no effect
Conditions: S. cerevisiae expressing SARS-CoV PLpro; Potency: growth rescue; activity, positive = growth rescue: at 32.9 µM (top of the series)
In the case of `CCN(CC)S(=O)(=O)c1ccc(N=Cc2c(C)c(C#N)c(=O)n(C)c2O)cc1`, the “activity, positive = growth rescue” value is reported as inactive: 8.27%.
For `CCOc1ccccc1NC(=O)C(=O)/C=C(\O)c1cc(OC)ccc1OC`, the Potency was inconclusive: 3.55 µM [activator, single point].
With `O=C(Nc1ccc(S(=O)(=O)N2CCOCC2)cc1)C1CC1` the “activity, positive = growth rescue” value was inactive: -0.37%.
In the case of `O=S(=O)(c1cccs1)N1CCN(Cc2cccc(F)c2)CC1`, the Potency is reported as inconclusive: 2.82 µM [activator, single point].
With `COc1ccc(N(C)C2=NS(=O)(=O)c3ccccc32)cc1` the Potency was inconclusive: 3.16 µM [activator, single point].
In the case of `O=C(O)Cn1cnc2c(=S)nc[nH]c21`, the “activity, positive = growth rescue” value is reported as inactive: 0.106%.
For `Cc1ccc2c(CC(=O)NNC(=O)c3ccccc3)coc2c1`, the “activity, positive = growth rescue” value was inactive: -0.7%.
With `Cc1cccc(NC(=O)C2(c3cccs3)CCOCC2)c1` the Potency was inconclusive: 1.78 µM [activator, full curve].
In the case of `O=S(=O)(NCc1cccnc1)c1ccc(Cl)c(Cl)c1`, the Potency is reported as inconclusive: 20 µM [activator, single point].
With `CC(Oc1ccc2c3c(c(=O)oc2c1)CCCC3)C(=O)NCc1cccnc1` (centres undefined) the Potency was inconclusive: 3.16 µM [activator, partial curve].
For `CCOC(=O)CC1(NC(=O)C2CCC(=O)N(CCc3ccc(OC)cc3)C2)CCCCC1` (centres undefined), the Potency was inconclusive: 11.2 µM [activator, partial curve].
For `CCNC(=O)/C(=C/c1ccco1)NC(=O)/C=C/c1ccccc1`, the “activity, positive = growth rescue” value was inactive: 5.39%.
For `CCc1ccc(-c2nc(SCC(=O)NC3CCCC3)n[nH]2)cc1`, the Potency was inconclusive: 0.447 µM [activator, full curve].
With `CCC1Oc2ccc(C)cc2N(CC(=O)NCc2cccc(OC)c2)C1=O` (centres undefined) the “activity, positive = growth rescue” value was inactive: -17.1%.
For `CCOC(=O)c1c(S(=O)(=O)NCC(=O)Nc2cccc(C)n2)c(C)n(C)c1C`, the Potency was inconclusive: 3.98 µM [activator, single point].
For `N#Cc1c(N2CCN(C(=O)c3ccco3)CC2)nc(-c2ccccc2)c2c1CCCC2`, the “activity, positive = growth rescue” value was inactive: -25.2%.
For `COc1ccc(C2=NS(=O)(=O)N(C)C(C(=O)N3CCc4ccccc4C3)=C2)cc1OC`, the “activity, positive = growth rescue” value was inactive: 6.39%.
In the case of `Fc1ccc(CNC(=S)Nc2ccccc2Cl)cc1`, the Potency is reported as inconclusive: 22.4 µM [activator, partial curve].
In the case of `O=C(O)c1ccc(/C=N/NC(=O)c2cc(-c3ccc4c5c(cccc35)CC4)n[nH]2)cc1`, the “activity, positive = growth rescue” value is reported as inactive: 0.175%.
For `CCc1nnc(NC(=O)CSc2nnc(CNc3ccc(C)cc3)n2C)s1`, the “activity, positive = growth rescue” value was inactive: -0.332%.
With `O=C(COc1cccc2ccccc12)N1CCN(c2ccccn2)CC1` the Potency was inconclusive: 4.47 µM [activator, single point].
In the case of `Cc1ccc(-c2noc(CN(C(=O)C34CC5CC(CC(C5)C3)C4)C(C)C)n2)cc1`, the “activity, positive = growth rescue” value is reported as inactive: -3.58%.
For `Cn1nccc1C(=O)NC1CCCc2c1cnn2-c1ccccc1F` (centres undefined), the Potency was inconclusive: 3.98 µM [activator, single point].
For `COc1cccc(-c2nnc(NC(=O)c3ccc4ncsc4c3)o2)c1`, the Potency was inconclusive: 20 µM [activator, single point].
With `CCOC(=O)c1c(C)nc2ccc(Cl)cc2c1-c1ccccc1` the Potency was inconclusive: 1.78 µM [activator, partial curve].
With `CCCOc1ccc(CC(=O)NNC(=S)Nc2ccccc2)cc1Br` the Potency was inconclusive: 12.6 µM [activator, single point].
With `O=C(CCC(=O)N1CCOc2ccccc21)Nc1cc(F)ccc1F` the Potency was inconclusive: 3.55 µM [activator, single point].
With `CCN1Cc2cc(OC)ccc2-c2ccccc2S1(=O)=O` the Potency was inconclusive: 22.4 µM [activator, single point].
With `CCN(CC(=O)Nc1ccc(NC(C)=O)cc1)C(=O)c1cccc(S(=O)(=O)N2c3ccccc3CC2C)c1` (centres undefined) the “activity, positive = growth rescue” value was inactive: 1.77%.
For `COc1ccc(/C=C/C(=O)OCC(=O)NC2CCCCCC2)cc1OC`, the Potency was inconclusive: 4.47 µM [activator, single point].
In the case of `COC(=O)c1sccc1NC(=O)c1cc(C)on1`, the Potency is reported as inconclusive: 20 µM [activator, single point].
With `COc1ccc(C(Nc2ccccn2)c2oc(CO)cc(=O)c2O)cc1` (centres undefined) the Potency was active: 11.2 µM.
With `CNC(=S)N/N=C/c1c(Cl)cccc1Cl` the Potency was inconclusive: 10 µM [activator, partial curve, poor fit].
In the case of `CC1CCCN(C(=O)CN2C(=O)CSc3ccc(S(=O)(=O)N4CCOCC4)cc32)C1` (centres undefined), the Potency is reported as inconclusive: 1 µM [activator, partial curve].
For `S=c1[nH]c2ccc3ccccc3c2[nH]1`, the “activity, positive = growth rescue” value was inactive: -4.71%.
For `Cc1nc(S/C(=C\c2ccc(-c3ccc(C(=O)O)c(Cl)c3)o2)C(=O)O)n[nH]1`, the “activity, positive = growth rescue” value was inactive: 1.03%.
In the case of `COc1ccc(/C=C2\CCCC3C2=NC(=S)NC3c2ccc(OC)cc2)cc1` (centres undefined), the Potency is reported as inconclusive: 20 µM [activator, single point].
In the case of `COc1ccc(C(C(=O)NC2CCCC2)N(C(=O)c2csnn2)C2CC2)cc1` (centres undefined), the “activity, positive = growth rescue” value is reported as inactive: -0.857%.
For `Cc1cccc(NC(=S)N2CCCCCC2)c1`, the Potency was inconclusive: 20 µM [activator, single point].
With `Fc1cc(Br)ccc1Nc1nc2ccccc2n2nnnc12` the “activity, positive = growth rescue” value was inactive: 9.62%.
For `COc1ccsc1C(=O)NCCN1CCOCC1`, the Potency was inconclusive: 3.98 µM [activator, single point].
In the case of `O=C(CN1CCCc2ccccc21)N/N=C/c1ccccc1O`, the Potency is reported as inconclusive: 5.62 µM [activator, partial curve].
With `COC(=O)c1ccc(C(=O)OC)c(NC(=S)N2CC(C)CC(C)C2)c1` (centres undefined) the Potency was inconclusive: 22.4 µM [activator, single point].
With `O=C(O)CCNC(=O)COc1ccc2c3c(c(=O)oc2c1)CCCC3` the “activity, positive = growth rescue” value was inactive: -1.34%.
In the case of `Cc1ccc(C2=NNC(C(O)C(O)C(O)C(C)O)S2)cc1` (centres undefined), the “activity, positive = growth rescue” value is reported as inactive: 4.45%.
For `O=C(O)c1cccc(Cn2c(Cl)c(/C=N/NC(=O)c3ccco3)sc2=O)c1`, the Potency was inconclusive: 3.98 µM [activator, single point].
For `O=C(N/N=C/c1cn(-c2ccccc2)nc1-c1cccnc1)c1cccnc1`, the “activity, positive = growth rescue” value was inactive: 3.43%.
For `O=C1CCC(C(=O)OCc2nnc(-c3ccc(Cl)cc3)o2)=NN1`, the “activity, positive = growth rescue” value was inactive: 1.69%.
With `CC1SCC(=NOCc2ccccc2)CS1` (centres undefined) the “activity, positive = growth rescue” value was inactive: 0.445%.
